# Data as given in PubChem BioAssay AID504444 (National Center for Advancing Translational Sciences (NCATS), 2011).
# Screen size: about 360,000 compounds; about 7,500 (2.1%) were called active. The shares of active, inactive and inconclusive entries below differ from those in the screen. Calls follow the shape of the dose curve; as a rule, active = well fitted inhibition curve with a large enough effect; inconclusive = small, poorly fitted or top-dose-only effect, or effect the other way; inactive = flat fitted curve, though single readings scatter. Potencies beside an inconclusive call are fits to weak or partial responses and may not hold up.
# Assay: Nrf2 qHTS screen for inhibitors; also: nearly all actives have a fitted effect of over 60% in size
# Details: A549 ARE-Fluc reporter, luciferase luminescence, 18-24 h; series mostly up to 46 µM
# In short: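 A549 ARE_Fluc cells, 5000/well, 5% FBS OPTI-MEM; compounds in dose-response, 18-24 h at 37 °C/5% CO2; CellTiter-Fluor viability read (Ex 405/Em 525), then BugLite luciferase luminescence = Nrf2 activity.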
# Potency is read from the fitted curve at half-maximal effect.
row,SMILES,Potency
1,O=C(Nc1nc(-c2ccc(S(=O)(=O)N3CCCC3)cc2)cs1)c1ccco1,"inconclusive: 29.1 µM [falling, single point]"
2,CCOc1ccc(N(CC(=O)NCc2ccccc2C)S(C)(=O)=O)cc1,"inconclusive: 0.58 µM [activator, partial curve, poor fit]"
3,Cc1ccc(N(CC(C)C)S(=O)(=O)c2nnc(NC(=O)c3ccco3)s2)cc1,"inconclusive: 6.51 µM [falling, single point]"
4,CN(C(=O)COC(=O)c1cccnc1Cl)C1CCCCC1,"inconclusive: 9.2 µM [activator, partial curve]"
5,O=[N+]([O-])c1ncn(Cc2c(Cl)cccc2Cl)n1,"inconclusive: 20.6 µM [falling, single point]"
6,Cc1ccc(S(=O)(=O)Nc2ccc(S(=O)(=O)Nc3cc(C)nc(C)n3)cc2)cc1,"inconclusive: 3.66 µM [falling, full curve, poor fit]"
7,Cc1ccc2oc(C(=O)N(Cc3cccc(F)c3)C3CCS(=O)(=O)C3)c(C)c2c1 (stereo not drawn),"inconclusive: 25.9 µM [falling, single point]"
8,O=C(CN(Cc1ccccc1)S(=O)(=O)c1ccc2c(c1)OCCO2)N/N=C/c1ccc(F)cc1,"inconclusive: 8.2 µM [falling, partial curve, poor fit]"
9,O=C(CCOc1cccc(Br)c1)Nc1ccc(F)c(S(=O)(=O)N2CCOCC2)c1,"inconclusive: 29.1 µM [falling, single point]"
10,c1ccc(N2CCN(c3ncnc4sc5c(c34)CCC5)CC2)cc1,"inconclusive: 23.1 µM [falling, single point]"
11,COc1ccc(S[C@@H](CCN2CC[C@H](NC(=O)OCc3ccccc3)CCC2=O)c2ccccc2)cc1,active: 18.4 µM
12,O=C(Nc1ccc(N2CCOCC2)c(Cl)c1)c1cc2ccccc2o1,"inconclusive: 4.61 µM [falling, single point]"
13,CCOc1cccc2sc(=NC(=O)CCS(=O)(=O)c3ccccc3)n(CC)c12,"inconclusive: 18.4 µM [falling, single point]"
14,COc1ccc(C2CC(c3ccc4ccccc4c3)=NN2C(=O)COC(=O)C2CCC(=O)N2)cc1 (stereo not drawn),"inconclusive: 5.17 µM [activator, full curve]"
15,CN1CCN(c2nc(-c3cccnc3)nc3scc(-c4ccccc4)c23)CC1,"inconclusive: 18.4 µM [activator, single point]"
16,O=C(CSc1nnc(-c2ccc(F)cc2)c2ccccc12)Nc1c(F)cccc1F,"inconclusive: 29.1 µM [falling, single point]"
17,CC(=O)NS(=O)(=O)c1ccc(NC(=O)/C=C/c2ccccc2Cl)cc1,"inconclusive: 0.0291 µM [activator, full curve, poor fit]"
18,C=C1C(O)[C@@H]2O[C@]3(CC[C@H](/C=C/C(C)[C@@H]4CC(C)=CC5(O[C@H](C[C@@](C)(O)CO)CCC5O)O4)O3)CC[C@H]2O[C@@H]1C(O)CC(C)[C@H]1OC2(CCCCO2)CCC1C (stereo partly drawn),"inconclusive: 1.3 µM [activator, full curve, poor fit]"
19,Clc1ccc(OCc2nc(-c3ccncc3)no2)c(Cl)c1,"inconclusive: 2.06 µM [activator, full curve]"

# By substructure, those above containing an aryl methoxy group
row,SMILES,Potency
11,COc1ccc(S[C@@H](CCN2CC[C@H](NC(=O)OCc3ccccc3)CCC2=O)c2ccccc2)cc1,active: 18.4 µM
14,COc1ccc(C2CC(c3ccc4ccccc4c3)=NN2C(=O)COC(=O)C2CCC(=O)N2)cc1 (stereo not drawn),"inconclusive: 5.17 µM [activator, full curve]"

# Going on with the list.

row,SMILES,Potency
1,O=C(NC(=S)Nc1cccnc1Cl)c1ccc(Cl)cc1,"inconclusive: 14.6 µM [activator, partial curve]"
2,CN(C)NC(=O)C12CCC(C)(C(=O)O1)C2(C)C (stereo not drawn),"inconclusive: 9.2 µM [activator, partial curve]"
3,NC1=Nc2cccc3cccc1c23,"inconclusive: 23.1 µM [falling, single point]"
4,S=c1[nH]nc(-c2ccncc2)n1/N=C/c1cn(-c2ccccc2)nc1-c1ccc(Cl)cc1,"inconclusive: 1.03 µM [activator, full curve, poor fit]"
5,Cc1ccc(NC(=O)Cn2c(=O)oc3ccccc32)cc1Cl,"inconclusive: 23.1 µM [falling, single point]"
6,COc1ccccc1CN1COc2ccc3c(C)cc(=O)oc3c2C1,"inconclusive: 9.2 µM [activator, single point]"
7,CCOC(=O)c1cc2c(=O)n3ccccc3nc2n(CCOC)c1=NC(=O)c1ccncc1,inactive
8,Cc1nn(Cc2cccc(C(=O)NC34CC5CC(CC(C5)C3)C4)c2)c(C)c1Br,"inconclusive: 9.2 µM [falling, single point]"
9,COc1cc(-c2cc(C(=O)N3CCN(c4ccccn4)CC3)c3ccccc3n2)cc(OC)c1OC,"inconclusive: 29.1 µM [falling, single point]"
10,O=[N+]([O-])c1ccc(Nc2nc(NC3CCCCC3)nc(N3CCCC3)n2)cc1,"inconclusive: 29.1 µM [falling, single point]"
11,Cc1cc(C)cc(NC(=O)COC(=O)[C@@H](NC(=O)c2ccco2)C(C)C)c1,"inconclusive: 7.31 µM [activator, partial curve]"
12,COc1ccc(NC(=O)Nc2ccc3nc(C)c(C)nc3c2)cc1,"inconclusive: 8.2 µM [falling, partial curve]"
13,O=C(COC(=O)Cn1cnc2ccccc21)Nc1cccc2c1C(=O)c1ccccc1C2=O,"inconclusive: 2.91 µM [falling, full curve]"
14,Cc1cnc(NC(=O)c2cncc(Br)c2)s1,"inconclusive: 1.3 µM [activator, full curve]"
15,O=C(NCCSc1ccccn1)c1ccc(Cl)cc1Cl,"inconclusive: 2.91 µM [activator, partial curve, poor fit]"
16,O=C(COc1ccc(Cl)cc1)Nc1ccc(CN2CCOCC2)cc1,"inconclusive: 29.1 µM [falling, single point]"
17,FC(F)(F)c1ccccc1N/N=C/c1cccnc1,"inconclusive: 29.1 µM [activator, single point]"
18,CCOC(=O)c1c(C)[nH]c(C)c1C(=O)CSc1nc2ccccc2c(=O)n1-c1ccccc1C,"inconclusive: 29.1 µM [falling, single point]"
19,CCc1cccc(NC(=O)CN(C)S(=O)(=O)c2cccs2)c1,"inconclusive: 16.4 µM [activator, single point]"
